Source: PubChem BioAssay AID504791 (Drosophila RNAi Screening Center, 2011)
The deposit covers about 23,000 reagents; below is a random part of those with a known target gene and a result. Over the whole deposit, 199 (0.86%) were called active. 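Plate-scaled ratios behind the calls are not deposited; printed light signals are raw; many rows marked increased or decreased are still called inactive.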 Entries without a mark were called inactive. Not given: the direction of the score.

Purpose: 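Genes of the fly required for silencing by miRNA, siRNA or endo-siRNA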 (primary screen)
Cell system: Drosophila S2-derived reporter cells
Knock-down reagent: long dsRNA against Drosophila genes, about 150-250 ng dsRNA per well (siRNA assay); about 80-120 ng (miRNA assay)
Timing: about 5 days (siRNA assay); about 4 days (miRNA assay)
Treatment: copper sulfate induction of reporters: 25 µM (siRNA assay); 200 mM stated (miRNA assay), 1-2 days before reading
Measured: 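Per-well ratio of Renilla over firefly light, expressed relative to that plate's average ratio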
Active means: 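a well was a first-pass pick when its plate-scaled ratio rose above 1.5 (siRNA assay) or 1.6 (miRNA assay), or dropped below 0.6; a gene counted only if two separate dsRNAs agreed on retest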

The first 2 entries as a preview:
predicted target | dsRNA | stable assay Renilla, run 1 (luminescence) | stable assay firefly, run 1 (luminescence)
Ser7 | DRSC18201 | 8239 | 4.22e5
Arl2 | DRSC14117 | 6702 | 4.75e5

Main list, repeating the preview:
predicted target | dsRNA | stable assay Renilla, run 1 (luminescence) | stable assay firefly, run 1 (luminescence)
Ser7 | DRSC18201 | 8239 | 4.22e5
Arl2 | DRSC14117 | 6702 | 4.75e5
CG14683 | DRSC17035 | 8052 | 4.40e5
RpL9 | DRSC03418 | 9067 | 3.41e5
Spt-I | DRSC06860 | 5407 | 3.25e5
CG10747 | DRSC02104 | 7034 | 4.71e5
alpha-Est4 | DRSC12616 | 6963 | 3.84e5
dati | DRSC17128 | 8146 | 4.70e5
dati | DRSC17153 | 5802 | 3.04e5
Arl5 | DRSC10785 | 7639 | 4.78e5
CG4741 | DRSC04485 | 7364 | 4.35e5
Gr63a | DRSC08438 | 7259 | 4.73e5
CG11123 | DRSC06040 | 5843 | 3.73e5
Mal-A4 | DRSC07236 | 7586 | 3.82e5
Rubicon | DRSC17889 | 5983 | 2.41e5
NP15.6 | DRSC16756 | 7219 | 4.48e5
CG8329 | DRSC10978 | 6424 | 3.38e5
Tcs5 | DRSC09774 | 6046 | 4.02e5
Gpo2 | DRSC06822 | 6266 | 3.04e5
Drep4 | DRSC03408 | 7687 | 5.39e5
Rbsn-5 | DRSC03094 | 1.28e5 | 7.06e5
Elp1 | DRSC14250 | 8282 | 4.89e5
Cyp303a1 | DRSC03300 | 8615 | 4.89e5
CG11788 | DRSC06084 | 5999 | 3.14e5
CG8008 | DRSC07053 | 7986 | 5.62e5
Ykt6 | DRSC17970 | 7119 | 3.18e5
CG42337 | DRSC11686 | 6498 | 4.38e5
CG42337 | DRSC11687 | 5143 | 2.64e5
CG42337 | DRSC23099 | 5859 | 3.88e5
yellow-e3 | DRSC15170 | 8167 | 5.14e5
CG31897 | DRSC01020 | 4307 | 3.72e5
Bdp1 | DRSC03192 | 20090 | 1.40e6
Gr5a | DRSC18085 | 6270 | 2.92e5
fln | DRSC11346 | 7591 | 3.16e5
